Results are given in words; binding and its absence hold for the method and conditions named. Some binding calls cover weakened binding; strength is not graded here.
Target: T1, Lgs HD1 (amino acids 321–355) (Drosophila) (UniProt Q961D9)
T1 sequence: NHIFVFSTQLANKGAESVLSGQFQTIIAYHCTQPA
Test: crystal structure; dPHD-HD1 complex coexpressed in E. coli and purified; crystals grown at 19°C in 1.136 M (NH4)2SO4, 100 mM Tris pH 8.3, 200 mM NaCl; 2.7 Å; both purified

- binding: binds
B1: Drosophila Pygo PHD (amino acids 747–808) (domain or fragment, UniProt Q9V9W8 747-808)
chain: IYPCGMCHKEVNDNDEAVFCESGCNFFFHRTCVGLTEAAFQMLNKEVFAEWCCDKCVSSKHI
